{"sequences": {"note": "Protein sequences, listed by entry. Tags and fused reporters are not part of them.", "UniProt O64399": "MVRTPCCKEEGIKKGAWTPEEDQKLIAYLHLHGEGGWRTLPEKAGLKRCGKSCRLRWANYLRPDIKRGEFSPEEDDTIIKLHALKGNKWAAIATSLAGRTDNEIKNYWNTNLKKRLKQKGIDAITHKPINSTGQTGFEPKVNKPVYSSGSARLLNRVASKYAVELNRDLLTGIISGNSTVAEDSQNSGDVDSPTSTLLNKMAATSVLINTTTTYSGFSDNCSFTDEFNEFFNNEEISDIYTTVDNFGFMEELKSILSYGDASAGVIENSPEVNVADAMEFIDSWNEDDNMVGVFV", "UniProt Q58G47": "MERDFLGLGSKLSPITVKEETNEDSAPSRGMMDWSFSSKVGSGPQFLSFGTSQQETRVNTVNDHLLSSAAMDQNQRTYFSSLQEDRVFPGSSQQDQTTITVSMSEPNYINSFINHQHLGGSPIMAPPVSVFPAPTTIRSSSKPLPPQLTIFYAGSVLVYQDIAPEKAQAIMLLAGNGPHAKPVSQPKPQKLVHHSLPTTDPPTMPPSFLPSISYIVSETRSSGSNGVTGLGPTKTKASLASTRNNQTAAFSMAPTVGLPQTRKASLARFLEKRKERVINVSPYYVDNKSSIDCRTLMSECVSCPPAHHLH", "UniProt Q9SZ06": "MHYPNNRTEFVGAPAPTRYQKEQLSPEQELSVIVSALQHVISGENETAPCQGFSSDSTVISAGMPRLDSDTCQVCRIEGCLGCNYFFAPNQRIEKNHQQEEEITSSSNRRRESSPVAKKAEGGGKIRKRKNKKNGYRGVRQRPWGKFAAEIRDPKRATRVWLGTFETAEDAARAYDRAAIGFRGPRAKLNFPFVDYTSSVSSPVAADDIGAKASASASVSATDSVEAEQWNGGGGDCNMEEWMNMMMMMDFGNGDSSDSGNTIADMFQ", "UniProt Q9FIP9": "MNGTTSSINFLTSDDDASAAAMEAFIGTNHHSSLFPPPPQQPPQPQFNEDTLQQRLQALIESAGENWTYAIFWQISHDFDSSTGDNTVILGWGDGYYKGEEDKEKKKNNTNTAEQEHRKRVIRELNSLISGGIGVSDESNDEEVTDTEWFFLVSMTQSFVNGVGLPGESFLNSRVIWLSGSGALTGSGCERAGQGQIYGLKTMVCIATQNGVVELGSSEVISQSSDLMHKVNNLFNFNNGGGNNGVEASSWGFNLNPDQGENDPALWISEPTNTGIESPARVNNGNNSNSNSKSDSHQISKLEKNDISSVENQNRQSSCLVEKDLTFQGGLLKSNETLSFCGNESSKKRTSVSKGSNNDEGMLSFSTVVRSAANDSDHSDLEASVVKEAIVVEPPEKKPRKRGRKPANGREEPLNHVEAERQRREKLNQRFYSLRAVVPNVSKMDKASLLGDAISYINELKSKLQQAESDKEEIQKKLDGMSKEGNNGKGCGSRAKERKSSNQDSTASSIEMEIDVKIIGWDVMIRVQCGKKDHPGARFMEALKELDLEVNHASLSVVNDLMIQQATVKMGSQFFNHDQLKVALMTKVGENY", "UniProt O49687": "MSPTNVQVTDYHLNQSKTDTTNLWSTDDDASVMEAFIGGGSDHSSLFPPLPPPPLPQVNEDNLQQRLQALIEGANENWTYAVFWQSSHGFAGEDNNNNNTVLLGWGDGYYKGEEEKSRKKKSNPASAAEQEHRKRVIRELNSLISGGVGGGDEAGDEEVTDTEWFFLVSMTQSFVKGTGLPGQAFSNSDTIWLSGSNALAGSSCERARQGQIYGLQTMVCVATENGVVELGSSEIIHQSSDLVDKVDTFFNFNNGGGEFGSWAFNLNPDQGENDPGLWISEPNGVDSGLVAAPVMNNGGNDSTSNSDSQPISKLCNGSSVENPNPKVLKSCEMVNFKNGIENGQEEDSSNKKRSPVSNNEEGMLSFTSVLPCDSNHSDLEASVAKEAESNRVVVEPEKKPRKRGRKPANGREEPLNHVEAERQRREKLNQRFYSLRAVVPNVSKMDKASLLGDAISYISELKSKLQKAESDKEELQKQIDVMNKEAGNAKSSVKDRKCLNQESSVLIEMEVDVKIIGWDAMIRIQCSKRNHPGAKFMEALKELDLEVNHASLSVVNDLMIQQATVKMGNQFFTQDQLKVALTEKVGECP"}, "source": "paper doi:10.1101/643494", "key": {"[1]": {"biological_target": "MYB51NT (yeast two-hybrid fusion) (Arabidopsis thaliana) (UniProt O49782)", "assay": "two-hybrid"}, "[2]": {"biological_target": "T1, MYB51 fused to the GAL4 BD (Arabidopsis thaliana) (UniProt O49782)", "T1 sequence": "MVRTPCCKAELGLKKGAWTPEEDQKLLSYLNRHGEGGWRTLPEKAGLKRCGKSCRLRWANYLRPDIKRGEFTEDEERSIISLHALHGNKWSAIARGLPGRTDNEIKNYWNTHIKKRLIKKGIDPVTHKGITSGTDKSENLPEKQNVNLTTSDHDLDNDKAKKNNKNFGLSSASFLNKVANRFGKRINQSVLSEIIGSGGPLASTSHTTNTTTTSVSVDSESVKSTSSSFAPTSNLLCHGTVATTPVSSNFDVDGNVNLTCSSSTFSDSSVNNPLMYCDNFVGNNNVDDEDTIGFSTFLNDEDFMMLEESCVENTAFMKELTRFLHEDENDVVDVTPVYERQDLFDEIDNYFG", "assay": "two-hybrid"}, "[3]": {"biological_target": "MYB34 fused to the GAL4 BD (Arabidopsis thaliana) (UniProt O64399)", "assay": "two-hybrid"}, "[4]": {"biological_target": "T2, Strep-MYB51 (Arabidopsis thaliana) (UniProt O49782)", "T2 sequence": "T1 sequence", "assay": "pull-down"}, "[5]": {"biological_target": "JAZ4 fused to the GAL4 BD (Arabidopsis thaliana) (UniProt Q58G47)", "assay": "two-hybrid"}, "[6]": {"biological_target": "T3, JAZ8 fused to the GAL4 BD (Arabidopsis thaliana) (UniProt Q8LBM2)", "T3 sequence": "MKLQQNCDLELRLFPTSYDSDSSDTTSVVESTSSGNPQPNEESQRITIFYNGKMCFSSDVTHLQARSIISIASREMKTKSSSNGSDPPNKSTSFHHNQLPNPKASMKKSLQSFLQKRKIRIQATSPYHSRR", "assay": "two-hybrid"}, "[7]": {"biological_target": "T4, JAZ7 fused to the GAL4 BD (Arabidopsis thaliana) (UniProt O64687)", "T4 sequence": "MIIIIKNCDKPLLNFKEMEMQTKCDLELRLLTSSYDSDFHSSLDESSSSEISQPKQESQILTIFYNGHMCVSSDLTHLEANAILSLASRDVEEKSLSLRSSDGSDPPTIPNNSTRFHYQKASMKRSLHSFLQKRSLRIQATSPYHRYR", "assay": "two-hybrid"}, "[8]": {"biological_target": "T5, JAZ3 fused to the GAL4 BD (Arabidopsis thaliana) (UniProt Q9LVI4)", "T5 sequence": "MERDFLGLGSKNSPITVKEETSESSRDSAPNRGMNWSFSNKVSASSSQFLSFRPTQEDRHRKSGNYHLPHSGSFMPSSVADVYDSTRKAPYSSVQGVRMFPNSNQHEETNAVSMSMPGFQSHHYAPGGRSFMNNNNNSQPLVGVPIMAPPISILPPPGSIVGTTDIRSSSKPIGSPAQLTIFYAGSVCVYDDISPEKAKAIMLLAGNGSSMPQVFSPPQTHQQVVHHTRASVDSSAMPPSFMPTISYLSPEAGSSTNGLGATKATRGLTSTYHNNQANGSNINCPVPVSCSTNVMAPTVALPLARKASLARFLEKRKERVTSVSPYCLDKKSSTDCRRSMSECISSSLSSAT", "assay": "two-hybrid"}, "[9]": {"biological_target": "T6, JAZ11 fused to the GAL4 BD (Arabidopsis thaliana) (UniProt Q9M246)", "T6 sequence": "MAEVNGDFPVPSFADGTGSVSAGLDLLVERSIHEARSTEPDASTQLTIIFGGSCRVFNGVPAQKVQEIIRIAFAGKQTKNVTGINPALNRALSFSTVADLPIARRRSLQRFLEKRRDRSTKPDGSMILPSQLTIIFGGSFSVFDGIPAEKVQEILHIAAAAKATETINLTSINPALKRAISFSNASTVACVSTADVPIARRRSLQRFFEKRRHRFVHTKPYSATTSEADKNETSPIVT", "assay": "two-hybrid"}, "[10]": {"biological_target": "T7, JAZ10 fused to the GAL4 BD (Arabidopsis thaliana) (UniProt Q93ZM9)", "T7 sequence": "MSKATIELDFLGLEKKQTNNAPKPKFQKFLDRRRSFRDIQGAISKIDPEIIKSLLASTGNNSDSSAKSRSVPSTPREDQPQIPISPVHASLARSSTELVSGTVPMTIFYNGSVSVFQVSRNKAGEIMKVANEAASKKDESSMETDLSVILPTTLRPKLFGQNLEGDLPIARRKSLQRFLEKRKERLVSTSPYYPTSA", "assay": "two-hybrid"}, "[11]": {"biological_target": "T8, JAZ9 fused to the GAL4 BD (Arabidopsis thaliana) (UniProt Q8W4J8)", "T8 sequence": "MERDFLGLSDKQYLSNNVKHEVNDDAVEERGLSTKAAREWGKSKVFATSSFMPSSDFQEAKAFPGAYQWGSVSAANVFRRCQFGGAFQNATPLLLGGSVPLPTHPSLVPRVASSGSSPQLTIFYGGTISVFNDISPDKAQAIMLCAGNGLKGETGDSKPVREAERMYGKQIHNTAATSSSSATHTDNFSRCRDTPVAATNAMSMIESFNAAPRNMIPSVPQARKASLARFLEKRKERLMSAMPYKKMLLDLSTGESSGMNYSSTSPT", "assay": "two-hybrid"}, "[12]": {"biological_target": "T9, nYFP-JAZ10 (Arabidopsis thaliana) (UniProt Q93ZM9)", "T9 sequence": "T7 sequence", "assay": "split reporter"}, "[13]": {"biological_target": "T10, unfused MYB51 (yeast three-hybrid bridge) (Arabidopsis thaliana) (UniProt O49782)", "T10 sequence": "T1 sequence", "assay": "two-hybrid"}, "[14]": {"biological_target": "T11, MYB51-cYFP (Arabidopsis thaliana) (UniProt O49782)", "T11 sequence": "T1 sequence", "assay": "split reporter"}, "[15]": {"biological_target": "T12, JAZ10-cYFP (Arabidopsis thaliana) (UniProt Q93ZM9)", "T12 sequence": "T7 sequence", "assay": "split reporter"}}, "note": "These are yes or no findings as the source states them, for the method shown. For some of these results: In cells and extracts the contact can be indirect. Some results given as binding are weak or reduced against the parent protein; the word gives no strength. For some of these results: Sequences can lack the tags named with a protein."}
{"substance": "ERF109 fused to the GAL4 AD (from UniProt Q9SZ06 1-268)", "values": [{"measurement": "binding", "setting": "[1]", "value": "no binding"}, {"measurement": "binding", "setting": "[2]", "value": "binds"}, {"measurement": "binding", "setting": "[3]", "value": "no binding"}]}
{"substance": "HA-ERF109 (from UniProt Q9SZ06 1-268)", "values": [{"measurement": "binding", "setting": "[4]", "value": "binds"}]}
{"substance": "HA-MYC3 (from UniProt Q9FIP9 1-592)", "values": [{"measurement": "binding", "setting": "[4]", "value": "binds"}]}
{"substance": "MYB34 fused to the GAL4 AD (from UniProt O64399 1-295)", "values": [{"measurement": "binding", "setting": "[5]", "value": "no binding"}, {"measurement": "binding", "setting": "[6]", "value": "no binding"}, {"measurement": "binding", "setting": "[7]", "value": "no binding"}, {"measurement": "binding", "setting": "[8]", "value": "no binding"}, {"measurement": "binding", "setting": "[9]", "value": "no binding"}, {"measurement": "binding", "setting": "[10]", "value": "no binding"}, {"measurement": "binding", "setting": "[11]", "value": "no binding"}]}
{"substance": "MYB51 NT-cYFP (from UniProt O49782 1-117) (domain or fragment)", "values": [{"measurement": "binding", "setting": "[12]", "value": "binds"}]}
{"substance": "MYC3 fused to the GAL4 AD (from UniProt Q9FIP9 1-592)", "values": [{"measurement": "binding", "setting": "[6]", "value": "binds"}, {"measurement": "binding", "setting": "[7]", "value": "no binding"}, {"measurement": "binding", "setting": "[2]", "value": "binds"}, {"measurement": "binding", "setting": "[9]", "value": "binds"}, {"measurement": "binding", "setting": "[10]", "value": "binds"}, {"measurement": "binding", "setting": "[11]", "value": "binds"}, {"measurement": "binding", "setting": "[13]", "value": "binds"}]}
{"substance": "MYC4 fused to the GAL4 AD (from UniProt O49687 1-589)", "values": [{"measurement": "binding", "setting": "[2]", "value": "binds"}, {"measurement": "binding", "setting": "[13]", "value": "binds"}]}
{"substance": "nYFP-ERF109 (from UniProt Q9SZ06 1-268)", "values": [{"measurement": "binding", "setting": "[14]", "value": "binds"}]}
{"substance": "nYFP-MYC3 (from UniProt Q9FIP9 1-592)", "values": [{"measurement": "binding", "setting": "[15]", "value": "binds"}, {"measurement": "binding", "setting": "[14]", "value": "binds"}]}
